Experimental data taken from the supplement of paper PMC8728848.
The other results are listed elsewhere or left out.

Experiments:
Assay in all cases: glycan array binding signal (z-score within array); higher = stronger binding
Conditions in all cases: glycan notation: IUPAC condensed, linker removed
[1] = target: GlcNAc(b1-2)Gal(b1-3)GalNAc
Summary of the method: (§1)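 Negative Z-scores can be read as non-binding. The Z-score is calculated within each array and then averaged across arrays of one protein sequence at different concentrations or buffers and across linkers. Arrays, 3228 in all, were curated from the Consortium for Functional Glycomics database and kept only where the protein sequence was available.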

[2] = target: GlcNAc(b1-2)Man(a1-3)[GlcNAc(b1-2)Man(a1-6)]Man(b1-4)GlcNAc(b1-4)GlcNAc
Summary of the method: as §1

[3] = target: GlcNAc(b1-2)Man(a1-3)[GlcNAc(b1-2)Man(a1-6)]Man(b1-4)GlcNAc(b1-4)[Fuc(a1-6)]GlcNAc
Summary of the method: as §1

[4] = target: GlcNAc(b1-2)Man(a1-3)[GlcNAc(b1-4)][GlcNAc(b1-2)Man(a1-6)]Man(b1-4)GlcNAc(b1-4)GlcNAc
Summary of the method: as §1

[5] = target: GlcNAc(b1-2)Man(a1-3)[GlcNAc(b1-4)][GlcNAc(b1-2)Man(a1-6)]Man(b1-4)GlcNAc(b1-4)[Fuc(a1-6)]GlcNAc
Summary of the method: as §1

[6] = target: GlcNAc(b1-2)[GlcNAc(b1-4)]Man(a1-3)[GlcNAc(b1-2)Man(a1-6)]Man(b1-4)GlcNAc(b1-4)GlcNAc
Summary of the method: as §1

[7] = target: GlcNAc(b1-2)[GlcNAc(b1-4)]Man(a1-3)[GlcNAc(b1-4)][GlcNAc(b1-2)Man(a1-6)]Man(b1-4)GlcNAc(b1-4)GlcNAc
Summary of the method: as §1

[8] = target: GlcNAc(b1-2)[GlcNAc(b1-4)]Man(a1-3)[GlcNAc(b1-4)][GlcNAc(b1-2)[GlcNAc(b1-6)]Man(a1-6)]Man(b1-4)GlcNAc(b1-4)GlcNAc
Summary of the method: as §1

[9] = target: GlcNAc(b1-2)[GlcNAc(b1-4)]Man(a1-3)[GlcNAc(b1-4)][GlcNAc(b1-2)[GlcNAc(b1-6)]Man(a1-6)]Man(b1-4)GlcNAc(b1-4)[Fuc(a1-6)]GlcNAc
Summary of the method: as §1

[10] = target: GlcNAc(b1-2)[GlcNAc(b1-6)]Man(a1-6)[GlcNAc(b1-2)Man(a1-3)]Man(b1-4)GlcNAc(b1-4)GlcNAc
Summary of the method: as §1

[11] = target: GlcNAc(b1-2)[GlcNAc(b1-6)]Man(a1-6)[GlcNAc(b1-2)Man(a1-3)]Man(b1-4)GlcNAc(b1-4)[Fuc(a1-6)]GlcNAc
Summary of the method: as §1

[12] = target: GlcNAc(b1-2)[GlcNAc(b1-6)]Man(a1-6)[GlcNAc(b1-4)][GlcNAc(b1-2)Man(a1-3)]Man(b1-4)GlcNAc(b1-4)GlcNAc
Summary of the method: as §1

[13] = target: GlcNAc(b1-3)Fuc
Summary of the method: as §1

[14] = target: GlcNAc(b1-3)Gal
Summary of the method: as §1

[15] = target: GlcNAc(b1-3)Gal(b1-3)GalNAc
Summary of the method: as §1

[16] = target: GlcNAc(b1-3)Gal(b1-4)Glc
Summary of the method: as §1

[17] = target: GlcNAc(b1-3)Gal(b1-4)GlcNAc
Summary of the method: as §1

[18] = target: GlcNAc(b1-3)Gal(b1-4)GlcNAc(b1-2)Man(a1-3)[GlcNAc(b1-3)Gal(b1-4)GlcNAc(b1-2)Man(a1-6)]Man(b1-4)GlcNAc(b1-4)GlcNAc
Summary of the method: as §1

[19] = target: GlcNAc(b1-3)Gal(b1-4)GlcNAc(b1-2)Man(a1-3)[GlcNAc(b1-3)Gal(b1-4)GlcNAc(b1-2)Man(a1-6)]Man(b1-4)GlcNAc(b1-4)[Fuc(a1-6)]GlcNAc
Summary of the method: as §1

[20] = target: GlcNAc(b1-3)Gal(b1-4)GlcNAc(b1-2)[GlcNAc(b1-3)Gal(b1-4)GlcNAc(b1-6)]Man(a1-6)[GlcNAc(b1-3)Gal(b1-4)GlcNAc(b1-2)Man(a1-3)]Man(b1-4)GlcNAc(b1-4)GlcNAc
Summary of the method: as §1

[21] = target: GlcNAc(b1-3)Gal(b1-4)GlcNAc(b1-3)Gal(b1-4)GlcNAc
Summary of the method: as §1

[22] = target: GlcNAc(b1-3)Gal(b1-4)GlcNAc(b1-3)Gal(b1-4)GlcNAc(b1-2)Man(a1-3)[GlcNAc(b1-3)Gal(b1-4)GlcNAc(b1-3)Gal(b1-4)GlcNAc(b1-2)Man(a1-6)]Man(b1-4)GlcNAc(b1-4)GlcNAc
Summary of the method: as §1

[23] = target: GlcNAc(b1-3)Gal(b1-4)GlcNAc(b1-3)Gal(b1-4)GlcNAc(b1-2)Man(a1-3)[GlcNAc(b1-3)Gal(b1-4)GlcNAc(b1-3)Gal(b1-4)GlcNAc(b1-2)Man(a1-6)]Man(b1-4)GlcNAc(b1-4)[Fuc(a1-6)]GlcNAc
Summary of the method: as §1

[24] = target: GlcNAc(b1-3)Gal(b1-4)GlcNAc(b1-3)Gal(b1-4)GlcNAc(b1-2)[GlcNAc(b1-3)Gal(b1-4)GlcNAc(b1-3)Gal(b1-4)GlcNAc(b1-6)]Man(a1-6)[GlcNAc(b1-3)Gal(b1-4)GlcNAc(b1-3)Gal(b1-4)GlcNAc(b1-2)Man(a1-3)]Man(b1-4)GlcNAc(b1-4)[Fuc(a1-6)]GlcNAc
Summary of the method: as §1

[25] = target: GlcNAc(b1-3)Gal(b1-4)GlcNAc(b1-3)Gal(b1-4)GlcNAc(b1-3)Gal(b1-4)GlcNAc(b1-2)Man(a1-3)[GlcNAc(b1-3)Gal(b1-4)GlcNAc(b1-3)Gal(b1-4)GlcNAc(b1-3)Gal(b1-4)GlcNAc(b1-2)Man(a1-6)]Man(b1-4)GlcNAc(b1-4)GlcNAc
Summary of the method: as §1

[26] = target: GlcNAc(b1-3)Gal(b1-4)GlcNAc(b1-3)Gal(b1-4)GlcNAc(b1-3)Gal(b1-4)GlcNAc(b1-2)Man(a1-3)[GlcNAc(b1-3)Gal(b1-4)GlcNAc(b1-3)Gal(b1-4)GlcNAc(b1-3)Gal(b1-4)GlcNAc(b1-2)Man(a1-6)]Man(b1-4)GlcNAc(b1-4)[Fuc(a1-6)]GlcNAc
Summary of the method: as §1

[27] = target: GlcNAc(b1-3)Gal(b1-4)GlcNAc(b1-3)Gal(b1-4)GlcNAc(b1-3)Gal(b1-4)GlcNAc(b1-2)[GlcNAc(b1-3)Gal(b1-4)GlcNAc(b1-3)Gal(b1-4)GlcNAc(b1-3)Gal(b1-4)GlcNAc(b1-6)]Man(a1-6)[GlcNAc(b1-3)Gal(b1-4)GlcNAc(b1-3)Gal(b1-4)GlcNAc(b1-3)Gal(b1-4)GlcNAc(b1-2)Man(a1-3)]Man(b1-4)GlcNAc(b1-4)[Fuc(a1-6)]GlcNAc
Summary of the method: as §1

[28] = target: GlcNAc(b1-3)Gal(b1-4)GlcNAc(b1-3)Gal(b1-4)GlcNAc(b1-3)Gal(b1-4)GlcNAc(b1-3)Gal(b1-4)GlcNAc(b1-2)Man(a1-3)[GlcNAc(b1-3)Gal(b1-4)GlcNAc(b1-3)Gal(b1-4)GlcNAc(b1-3)Gal(b1-4)GlcNAc(b1-3)Gal(b1-4)GlcNAc(b1-2)Man(a1-6)]Man(b1-4)GlcNAc(b1-4)GlcNAc
Summary of the method: as §1

[29] = target: GlcNAc(b1-3)Gal(b1-4)GlcNAc(b1-3)Gal(b1-4)GlcNAc(b1-3)Gal(b1-4)GlcNAc(b1-3)Gal(b1-4)GlcNAc(b1-2)Man(a1-3)[GlcNAc(b1-3)Gal(b1-4)GlcNAc(b1-3)Gal(b1-4)GlcNAc(b1-3)Gal(b1-4)GlcNAc(b1-3)Gal(b1-4)GlcNAc(b1-2)Man(a1-6)]Man(b1-4)GlcNAc(b1-4)[Fuc(a1-6)]GlcNAc
Summary of the method: as §1

[30] = target: GlcNAc(b1-3)Gal(b1-4)GlcNAc(b1-3)Gal(b1-4)GlcNAc(b1-3)Gal(b1-4)GlcNAc(b1-3)Gal(b1-4)GlcNAc(b1-2)[GlcNAc(b1-3)Gal(b1-4)GlcNAc(b1-3)Gal(b1-4)GlcNAc(b1-3)Gal(b1-4)GlcNAc(b1-3)Gal(b1-4)GlcNAc(b1-6)]Man(a1-6)[GlcNAc(b1-3)Gal(b1-4)GlcNAc(b1-3)Gal(b1-4)GlcNAc(b1-3)Gal(b1-4)GlcNAc(b1-3)Gal(b1-4)GlcNAc(b1-2)Man(a1-3)]Man(b1-4)GlcNAc(b1-4)[Fuc(a1-6)]GlcNAc
Summary of the method: as §1

[31] = target: GlcNAc(b1-3)Gal(b1-4)GlcNAc(b1-3)Gal(b1-4)GlcNAc(b1-3)GalNAc
Summary of the method: as §1

[32] = target: GlcNAc(b1-3)Gal(b1-4)GlcNAc(b1-3)GalNAc
Summary of the method: as §1

[33] = target: GlcNAc(b1-3)Gal(b1-4)GlcNAc(b1-3)[GlcNAc(b1-3)Gal(b1-4)GlcNAc(b1-3)]GalNAc
Summary of the method: as §1

[34] = target: GlcNAc(b1-3)Gal(b1-4)GlcNAc(b1-6)[Gal(b1-3)]GalNAc
Summary of the method: as §1

[35] = target: GlcNAc(b1-3)Gal(b1-4)GlcNAc(b1-6)[GlcNAc(b1-3)Gal(b1-3)]GalNAc
Summary of the method: as §1

[36] = target: GlcNAc(b1-3)Gal(b1-4)GlcNAc(b1-6)[GlcNAc(b1-3)]Gal(b1-4)GlcNAc
Summary of the method: as §1

[37] = target: GlcNAc(b1-3)GalNAc
Summary of the method: as §1

B1: FimA (Actinomyces oris) (protein)
chain: MHHHHHHSSGVDLGTENLYFQSNAETPNYGNIKTDATGSLVIHKHLTGGGKDIGTPTGTAQNADDKGPAVEGVVFTAYPITDINLKDPAGWDTISNLSRTGVPDSACANPAAPTLGAHQFGTPKVSPATTKEGLATITEMPVQAYLVCETTTPGDIVQKAKPFVVTIPHPNTAAGADGQWIYDVNVYPKNEAIDVDKTIQAQKLNGYGVGSLIKFPVESTAPTLDAKSFYKYFQLKDTLDERLSEVTATDVSLEGTPLQPTDYKVETKQQTVTVTFTAEGLKKIKAAPGKKVSAVFQGKVTKAGNGAITNRAQVISDTLYAEQPPTPETPPTDPENPPTSDEVISRWGDLSIKKVDTHQQGQTKAGLQGAQFQLYKAKNAYANTCSNEKEGAPIAINGQTTLTTDAQGAIDIKGLFISDSIDGADRDNQVNAMERCYVLVETKAPAGYVLPAGNGAATPVKVKAGEETTDNVTVENTKQSVPGLPLTG
glycan array binding signal (z-score) [1]: -0.429 | glycan array binding signal (z-score) [2]: -0.333 | glycan array binding signal (z-score) [3]: -0.129 | glycan array binding signal (z-score) [4]: 0.325 | glycan array binding signal (z-score) [5]: -0.549 | glycan array binding signal (z-score) [6]: -0.403 | glycan array binding signal (z-score) [7]: -0.504 | glycan array binding signal (z-score) [8]: -0.781 | glycan array binding signal (z-score) [9]: -0.398 | glycan array binding signal (z-score) [10]: -0.388 | glycan array binding signal (z-score) [11]: -0.354 | glycan array binding signal (z-score) [12]: -0.654 | glycan array binding signal (z-score) [13]: -0.584 | glycan array binding signal (z-score) [14]: -0.715 | glycan array binding signal (z-score) [15]: 0.718 | glycan array binding signal (z-score) [16]: -0.311 | glycan array binding signal (z-score) [17]: -0.211 | glycan array binding signal (z-score) [18]: -0.593 | glycan array binding signal (z-score) [19]: 0.128 | glycan array binding signal (z-score) [20]: -0.217 | glycan array binding signal (z-score) [21]: -0.236 | glycan array binding signal (z-score) [22]: 0.437 | glycan array binding signal (z-score) [23]: 1.07 | glycan array binding signal (z-score) [24]: -0.212 | glycan array binding signal (z-score) [25]: 0.321 | glycan array binding signal (z-score) [26]: 0.48 | glycan array binding signal (z-score) [27]: 0.157 | glycan array binding signal (z-score) [28]: -0.06 | glycan array binding signal (z-score) [29]: 1.87 | glycan array binding signal (z-score) [30]: 0.569 | glycan array binding signal (z-score) [31]: 2.33 | glycan array binding signal (z-score) [32]: 0.232 | glycan array binding signal (z-score) [33]: 0.464 | glycan array binding signal (z-score) [34]: 1.54 | glycan array binding signal (z-score) [35]: -0.372 | glycan array binding signal (z-score) [36]: 1.32 | glycan array binding signal (z-score) [37]: -0.267
